Source: patent US20240376156A1, “MULTIPLE DE NOVO DESIGNED PROTEIN BINDING PROTEINS” (UNIVERSITY OF WASHINGTON, priority 2021, published 2024)
These are yes or no findings as the source states them, for the method shown. Some results given as binding are weak or reduced against the parent protein; the word gives no strength.

Sequences of proteins named here, by UniProt entry; tags and fusion partners are left off. A change or cut given only in a name is not applied to a line headed by its entry. A line that says so, or that is headed by a name, gives the form on record, which may keep a tag or linker. Residues count along the entry.
InsulinR ectodomain (residues 28-953) with C-terminal TEV/His/AviTag (P06213, form named): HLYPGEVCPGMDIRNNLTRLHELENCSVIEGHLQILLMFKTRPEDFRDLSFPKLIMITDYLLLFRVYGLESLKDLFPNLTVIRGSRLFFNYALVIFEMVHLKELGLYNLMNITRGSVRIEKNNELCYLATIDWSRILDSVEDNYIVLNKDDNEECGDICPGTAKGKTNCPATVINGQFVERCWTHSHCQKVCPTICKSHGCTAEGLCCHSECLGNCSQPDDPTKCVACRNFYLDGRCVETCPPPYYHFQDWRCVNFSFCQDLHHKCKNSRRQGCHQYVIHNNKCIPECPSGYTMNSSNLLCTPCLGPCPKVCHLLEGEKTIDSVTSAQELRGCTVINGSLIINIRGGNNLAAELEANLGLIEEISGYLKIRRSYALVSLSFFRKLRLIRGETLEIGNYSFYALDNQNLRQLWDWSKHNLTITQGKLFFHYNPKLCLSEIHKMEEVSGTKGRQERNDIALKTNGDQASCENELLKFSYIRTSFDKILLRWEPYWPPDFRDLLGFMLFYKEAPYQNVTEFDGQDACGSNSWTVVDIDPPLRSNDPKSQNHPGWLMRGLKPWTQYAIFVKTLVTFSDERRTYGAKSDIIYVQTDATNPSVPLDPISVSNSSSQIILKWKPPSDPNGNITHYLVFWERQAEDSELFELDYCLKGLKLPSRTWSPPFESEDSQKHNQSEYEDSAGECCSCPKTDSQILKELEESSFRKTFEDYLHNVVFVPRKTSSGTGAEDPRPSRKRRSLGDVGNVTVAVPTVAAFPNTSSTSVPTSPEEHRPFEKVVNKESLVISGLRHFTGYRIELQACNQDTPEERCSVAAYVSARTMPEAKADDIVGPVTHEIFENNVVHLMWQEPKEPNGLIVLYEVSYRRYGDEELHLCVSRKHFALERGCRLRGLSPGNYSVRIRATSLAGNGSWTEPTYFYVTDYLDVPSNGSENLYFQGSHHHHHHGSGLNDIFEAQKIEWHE
UniProt P04234, residues 22-105: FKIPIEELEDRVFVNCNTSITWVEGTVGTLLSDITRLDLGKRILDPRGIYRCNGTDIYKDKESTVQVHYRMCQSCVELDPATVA
UniProt P01137, residues 279-390: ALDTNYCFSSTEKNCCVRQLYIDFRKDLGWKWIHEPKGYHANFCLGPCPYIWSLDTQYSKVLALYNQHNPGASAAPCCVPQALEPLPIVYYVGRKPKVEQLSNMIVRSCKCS

Legend:
[1] = target: InsulinR ectodomain (residues 28-953) with C-terminal TEV/His/AviTag (human) (UniProt P06213); assay: yeast display sorting and biolayer interferometry
[2] = target: InsulinR ectodomain (residues 28-953) with C-terminal TEV/His/AviTag (human) (UniProt P06213); assay: BLI, miniprotein immobilized on AR2G biosensors, insulin receptor as analyte
[3] = target: Biotinylated CD3 protein (Abcam Cat #ab205994); target CD3 delta chain (CD3δ) (human) (UniProt P04234); assay: BLI, biotinylated target on SA biosensors, miniprotein as analyte
[4] = target: T1, TGF-β (Acro Biosystems Cat #TG1-H8217) (human, UniProt P01137 279-390); assay: as above
T1 construct: also called TGFb; Transforming growth factor beta

B1: InsulinR_mb (designed binder)
chain: MSHHHHHHHHSENLYFQSGGGDEELMELVYEAVEKNDPELLFEAWMELASLLDETGDPKIEEALGLLQQVDGGNPDAGRRIKELFK
For B1, the binding [1] was “binds” and the binding [2] was “binds”.

B2: CD3δ_mb (designed binder)
chain: MSHHHHHHHHSENLYFQSGGGNHIACEIHNPEAAKEIAKVANVRRVYFIKQPGNRYFVLLKNADPEGVKKVRSKYNVRCVIRE
B2 was tested, and the binding [3] was “binds”.

B3: TGF-β_mb (designed binder)
chain: MSHHHHHHHHSENLYFQSGGGHCTIEVVGVDPEKVEAIAAAYGAEVCEKDGKFEIHLDDPHSAESAAVAISVLTNRPVRLQC
B3 was tested, and the binding [4] was “binds”.
